Taken from: PubChem BioAssay AID1259308 (NCATS, 2017)
The whole screen tested about 59,000 reagents; below is a part drawn at random. About 1,510 of them (2.6%) were called active. 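Calls use total luciferase alone and ignore viability, so some active siRNAs may act by altering cell number.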 The numbers tell different reagents against one gene apart.

Purpose: 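Candidate targets for better recombinant protein yield in mammalian cells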 (primary screen)
Cell system: human HEK293 embryonic kidney cells stably expressing firefly luciferase (HEK-CMV-Luc2-Hygro)
Knock-down reagent: single siRNA against human genes, 0.8 pmol siRNA per well
Duration: 72 h
Measured: 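Reporter luminescence and viable-cell signal on separate replicate plates, given as percent of non-targeting control and median/MAD z-scores, plus per-cell luciferase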
Reading the numbers: total luciferase, z-score and total luciferase, % of control: higher = more reporter protein produced; luciferase per cell, z-score: higher = more reporter output per viable cell; viable cells, % of control: higher = more viable cells
Hit rule: 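An siRNA counts as active if its total luciferase robust z-score exceeds 3; genes with two or more such siRNAs out of three were retested with fresh siRNAs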
Calls: active = raised luciferase; inactive = no rise

| Target gene | siRNA no. | total luciferase, z-score | total luciferase, % of control | luciferase per cell, z-score | viable cells, % of control | activity call |
| --- | --- | --- | --- | --- | --- | --- |
| NFATC2IP | 1 | -3.06 | 21.1 | -2.51 | 45.7 | inactive |
| NFATC2IP | 2 | 0.786 | 97.5 | 1.28 | 77.9 | inactive |
| NFATC2IP | 3 | 1.86 | 119 | 1.43 | 91.2 | inactive |
| AIPL1 | 1 | 0.0952 | 83.8 | -0.246 | 99.9 | inactive |
| AIPL1 | 2 | -2.05 | 41.2 | -2.1 | 80 | inactive |
| AIPL1 | 3 | 0.491 | 91.7 | 0.649 | 86.3 | inactive |
| HOXD11 | 1 | -0.0533 | 80.8 | -0.323 | 98.3 | inactive |
| HOXD11 | 2 | 0.116 | 84.2 | 0.388 | 84.9 | inactive |
| HOXD11 | 3 | -1.07 | 60.5 | -0.763 | 82.7 | inactive |
| CTU1 | 1 | 1.25 | 107 | 0.28 | 111 | inactive |
| CTU1 | 2 | -0.577 | 70.4 | -1.28 | 110 | inactive |
| CTU1 | 3 | -0.119 | 79.5 | -1.03 | 116 | inactive |
| ZNF845 | 1 | 0.896 | 99.7 | 0.801 | 90.2 | inactive |
| ZNF845 | 2 | 0.337 | 88.6 | -0.16 | 103 | inactive |
| ZNF845 | 3 | -0.529 | 71.4 | -0.0812 | 81.5 | inactive |
| EDAR | 1 | -1.48 | 52.4 | -1.62 | 89.7 | inactive |
| EDAR | 2 | 1.14 | 105 | 1.07 | 88.2 | inactive |
| EDAR | 3 | 1.15 | 105 | 0.942 | 91.3 | inactive |
| ZNF230 | 1 | -0.416 | 73.6 | -0.572 | 95.6 | inactive |
| ZNF230 | 2 | -0.306 | 75.8 | 0.686 | 70.7 | inactive |
| ZNF230 | 3 | 0.3 | 87.9 | 1.12 | 73.1 | inactive |
| ORM1 | 1 | -1.23 | 57.5 | -0.617 | 75.6 | inactive |
| ORM1 | 2 | 0.467 | 91.2 | -0.118 | 105 | inactive |
| ORM1 | 3 | -0.647 | 69 | -1.08 | 102 | inactive |
| NDUFB4 | 1 | -0.436 | 73.2 | 1.46 | 55.7 | inactive |
| NDUFB4 | 2 | 3.2 | 146 | 2.02 | 95.6 | active |
| NDUFB4 | 3 | -0.0303 | 81.3 | -0.0415 | 91.8 | inactive |
| DDX4 | 1 | -0.581 | 70.3 | -1.09 | 105 | inactive |
| DDX4 | 2 | -0.267 | 76.6 | -0.106 | 88 | inactive |
| DDX4 | 3 | -0.294 | 76 | 0.457 | 75.3 | inactive |
| H3-5 | 1 | 0.215 | 86.2 | -0.0801 | 98.3 | inactive |
| H3-5 | 2 | 1.18 | 105 | 0.685 | 98.3 | inactive |
| H3-5 | 3 | -0.823 | 65.5 | -0.851 | 91.6 | inactive |
| MAP4K2 | 1 | 0.456 | 91 | 0.876 | 80.7 | inactive |
| MAP4K2 | 2 | -0.367 | 74.6 | -0.466 | 94.2 | inactive |
| MAP4K2 | 3 | 2.9 | 140 | 2.11 | 89.4 | inactive |
| CCDC25 | 1 | 1.31 | 108 | 1.17 | 88.5 | inactive |
| CCDC25 | 2 | -0.871 | 64.6 | 0.305 | 66.6 | inactive |
| CCDC25 | 3 | -0.712 | 67.7 | -1.12 | 102 | inactive |
| ETHE1 | 1 | -1.2 | 58 | -0.788 | 79.8 | inactive |
| ETHE1 | 2 | -0.015 | 81.6 | -0.397 | 101 | inactive |
| ETHE1 | 3 | 1.24 | 107 | 1.27 | 85.3 | inactive |
| PPP1R7 | 1 | 0.217 | 86.2 | -0.506 | 110 | inactive |
| PPP1R7 | 2 | -0.29 | 76.1 | 0.173 | 81.3 | inactive |
| PPP1R7 | 3 | -0.388 | 74.2 | 0.526 | 72.2 | inactive |
| ZNF124 | 1 | -0.278 | 76.4 | -0.249 | 91.1 | inactive |
| ZNF124 | 2 | 2.35 | 129 | 1.52 | 96.3 | inactive |
| ZNF124 | 3 | 1.76 | 117 | 0.725 | 108 | inactive |
| FGFBP3 | 1 | -1.47 | 52.7 | 0.806 | 47.6 | inactive |
| FGFBP3 | 2 | -0.788 | 66.2 | -0.348 | 81.1 | inactive |
| FGFBP3 | 3 | 4.27 | 167 | 3.14 | 81.6 | active |
| ZNF594 | 1 | 1.89 | 120 | 2.42 | 70.6 | inactive |
| ZNF594 | 2 | -0.278 | 76.4 | -0.678 | 102 | inactive |
| ZNF594 | 3 | -0.437 | 73.2 | -0.852 | 102 | inactive |
| GRM2 | 1 | -1.34 | 55.2 | 0.702 | 51.3 | inactive |
| GRM2 | 2 | -0.86 | 64.8 | -1.62 | 111 | inactive |
| GRM2 | 3 | 1.22 | 106 | 1.23 | 85.8 | inactive |
